PubChem BioAssay AID1053208 – Peter MacCallum Cancer Centre – 2014

- Screen: 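Synthetic lethal interactions between gene loss and doxorubicin in osteosarcoma cells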 (primary screen)
- System: mouse osteosarcoma cells, early-passage culture from an engineered mouse model of fibroblastic bone tumour
- Knock-down reagent: siRNA pool against mouse genes, 40 nM
- Duration: about 120 h (48 h before drug, then 72 h with drug)
- Treatment: doxorubicin 100 nM for 72 h, roughly 30-40% inhibitory dose
- Read-out: 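Viability read as ATP luminescence after 72 h of 100 nM doxorubicin or none, duplicate wells averaged, scaled to non-targeting siRNA, then expressed as robust z-scores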
- Reading the numbers: viability z-score with doxorubicin: higher = more viable cells under doxorubicin; viability z-score without drug: higher = more viable cells with knock-down alone
- Call rule: 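a pool counts as active when its viability z-score with doxorubicin is -2 or below and its z-score without drug lies between -2 and 2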
This is one part, drawn at random, of about 17,000 reagents. Over the whole deposit, 788 (4.7%) are marked active. 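Calls rest on z-score classes alone; an extra cut-off of viability at most 70% of control was not applied to them.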 Entries without a mark were called inactive. Not all columns of the deposit are shown. Reagent sequences are not shown.

gene,combined z-score class,viability z-score with doxorubicin,viability z-score without drug
Skor1 (GeneID 207667),no change with or without drug,0.56,0.51
Fam222b (GeneID 216971),no change with or without drug,0.45,0.17
Ttk (GeneID 22137),low cell count with and without drug,-4.72,-2.53
Zfp711 (GeneID 245595),no change with or without drug,-1.35,-1.85
Defa20 (GeneID 68009),high cell count with doxorubicin only,2.02,0.84
Il1rap (GeneID 16180),no change with or without drug,-1.35,-0.17
Vrk2 (GeneID 69922),no change with or without drug,-0.45,1.35
Tat (GeneID 234724),no change with or without drug,0.67,-0.17
Epha4 (GeneID 13838),no change with or without drug,0.67,-0.51
Obp1a (GeneID 18249),no change with or without drug,0,-0.34
Bloc1s5 (GeneID 17828),no change with or without drug,0.45,-0.51
Unk (GeneID 217331),high cell count without drug only,1.24,2.53
Htr3b (GeneID 57014),no change with or without drug,0.56,-1.85
Fzd2 (GeneID 57265),no change with or without drug,-1.57,-1.18
Krtap13-1 (GeneID 268905),no change with or without drug,0,0.17
Ceacam1 (GeneID 26365),no change with or without drug,-1.12,-1.52
Atp5pd (GeneID 71679),no change with or without drug,-0.67,0.17
Ctsq (GeneID 104002),no change with or without drug,1.35,-0.17
St8sia5 (GeneID 225742),no change with or without drug,0.22,0.84
Cables2 (GeneID 252966),no change with or without drug,-0.22,0.84
Creb3l2 (GeneID 208647),no change with or without drug,0.67,1.18
Sntb2 (GeneID 20650),no change with or without drug,1.35,-1.18
Krtap4-7 (GeneID 76444),no change with or without drug,1.8,1.35
Unc13b (GeneID 22249),no change with or without drug,0.67,0.34
Creb3l1 (GeneID 26427),no change with or without drug,1.01,1.85
Mobp (GeneID 17433),low cell count with and without drug,-2.02,-2.19
Galnt10 (GeneID 171212),no change with or without drug,1.46,1.85
Xrcc4 (GeneID 108138),no change with or without drug,-0.11,0.34
Phf14 (GeneID 75725),high cell count without drug only,1.46,3.04
Neil3 (GeneID 234258),no change with or without drug,0.22,0.17
Akap8l (GeneID 54194),no change with or without drug,-1.69,-1.18
Tceal9 (GeneID 22381),high cell count with and without drug,3.48,3.37
Gstm3 (GeneID 14864),no change with or without drug,1.8,0.34
Zxdc (GeneID 80292),no change with or without drug,0.45,-0.17
Alg1 (GeneID 208211),no change with or without drug,-0.56,-0.84
Ugt8a (GeneID 22239),no change with or without drug,0.34,0
Zbtb22 (GeneID 81630),no change with or without drug,-0.67,1.85
6030452D12Rik (GeneID 330837),no change with or without drug,0.45,1.52
Lrrc47 (GeneID 72946),no change with or without drug,-0.9,-0.17
Or4f53 (GeneID 258390),no change with or without drug,-1.57,-1.18
Sp1 (GeneID 20683),no change with or without drug,-0.45,0.51
Crb1 (GeneID 170788),no change with or without drug,-0.22,-0.17
Nup54 (GeneID 269113),low cell count with and without drug,-4.27,-2.36
Polrmt (GeneID 216151),no change with or without drug,0.9,-0.51
Emp3 (GeneID 13732),no change with or without drug,-0.9,0.17
Pou4f1 (GeneID 18996),no change with or without drug,0.67,0.17
Dynlt2b (GeneID 66061),no change with or without drug,-1.24,-1.35
Or5b98 (GeneID 258368),no change with or without drug,-0.67,-0.84
Tbl1xr1 (GeneID 81004),high cell count without drug only,0.34,2.02
Nat14 (GeneID 269854),no change with or without drug,-1.57,-1.85
